In the supplement of paper PMC8728848:
The other results are listed elsewhere or left out.

Columns and labels:
Experiment in all cases: glycan array binding signal (z-score within array); higher = stronger binding
Details in all cases: glycan notation: IUPAC condensed, linker removed
[1] = biological target: Fuc(a1-2)Gal(b1-4)GlcNAc(b1-3)Gal(b1-4)GlcNAc(b1-3)Gal(b1-4)GlcNAc
Method in brief: (§1)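 The Consortium for Functional Glycomics database supplied 3228 glycan arrays, of which those lacking an available protein sequence were dropped. The binding signal, a within-array Z-score, was averaged across arrays of the same protein sequence and across linkers. Negative scores can be read as non-binding.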

[2] = biological target: Fuc(a1-2)Gal(b1-4)GlcNAc(b1-3)GalNAc
Method in brief: as §1

[3] = biological target: Fuc(a1-2)Gal(b1-4)GlcNAc(b1-3)[Fuc(a1-2)Gal(b1-4)GlcNAc(b1-6)]GalNAc
Method in brief: as §1

[4] = biological target: Fuc(a1-2)Gal(b1-4)GlcNAc(b1-3)[Fuc(a1-3)[Gal(b1-4)]GlcNAc(b1-6)]Gal(b1-4)Glc
Method in brief: as §1

[5] = biological target: Fuc(a1-2)Gal(b1-4)GlcNAc(b1-6)GalNAc
Method in brief: as §1

[6] = biological target: Fuc(a1-2)Gal(b1-4)GlcNAc6S
Method in brief: as §1

[7] = biological target: Fuc(a1-2)Gal(b1-4)[Fuc(a1-3)]GlcNAc
Method in brief: as §1

[8] = biological target: Fuc(a1-2)Gal(b1-4)[Fuc(a1-3)]GlcNAc(b1-2)Man(a1-3)[Fuc(a1-2)Gal(b1-4)[Fuc(a1-3)]GlcNAc(b1-2)Man(a1-6)]Man(b1-4)GlcNAc(b1-4)[Fuc(a1-6)]GlcNAc
Method in brief: as §1

[9] = biological target: Fuc(a1-2)Gal(b1-4)[Fuc(a1-3)]GlcNAc(b1-2)[Fuc(a1-2)Gal(b1-4)[Fuc(a1-3)]GlcNAc(b1-4)]Man(a1-3)[Fuc(a1-2)Gal(b1-4)[Fuc(a1-3)]GlcNAc(b1-2)Man(a1-6)]Man(b1-4)GlcNAc(b1-4)GlcNAc
Method in brief: as §1

[10] = biological target: Fuc(a1-2)Gal(b1-4)[Fuc(a1-3)]GlcNAc(b1-3)Gal(b1-4)[Fuc(a1-3)]GlcNAc
Method in brief: as §1

[11] = biological target: Fuc(a1-2)Gal(b1-4)[Fuc(a1-3)]GlcNAc(b1-3)Gal(b1-4)[Fuc(a1-3)]GlcNAc(b1-3)Gal(b1-4)[Fuc(a1-3)]GlcNAc
Method in brief: as §1

[12] = biological target: Fuc(a1-2)Gal(b1-4)[Fuc(a1-3)]GlcNAc(b1-3)GalNAc
Method in brief: as §1

[13] = biological target: Fuc(a1-2)Gal(b1-4)[Fuc(a1-3)]GlcNAc(b1-3)[Neu5Ac(a2-6)Gal(b1-4)GlcNAc(b1-6)]Gal(b1-4)Glc
Method in brief: as §1

[14] = biological target: Fuc(a1-2)Gal3S(b1-4)GlcNAc
Method in brief: as §1

[15] = biological target: Fuc(a1-2)Gal6S(b1-3)GlcNAc
Method in brief: as §1

[16] = biological target: Fuc(a1-2)Gal6S(b1-3)GlcNAc6S
Method in brief: as §1

Fuc(a1-2)Gal6S(b1-4)Glc = biological target: Fuc(a1-2)Gal6S(b1-4)Glc
Method in brief: as §1

[17] = biological target: Fuc(a1-2)Gal6S(b1-4)Glc6S
Method in brief: as §1

Fuc(a1-2)[Gal(a1-3)]Gal = biological target: Fuc(a1-2)[Gal(a1-3)]Gal
Method in brief: as §1

[18] = biological target: Fuc(a1-2)[Gal(a1-3)]Gal(b1-3)GalNAc
Method in brief: as §1

[19] = biological target: Fuc(a1-2)[Gal(a1-3)]Gal(b1-3)GalNAc(b1-3)Gal(a1-4)Gal(b1-4)Glc
Method in brief: as §1

[20] = biological target: Fuc(a1-2)[Gal(a1-3)]Gal(b1-3)GlcNAc
Method in brief: as §1

[21] = biological target: Fuc(a1-2)[Gal(a1-3)]Gal(b1-3)GlcNAc(b1-2)Man(a1-3)[Fuc(a1-2)[Gal(a1-3)]Gal(b1-3)GlcNAc(b1-2)Man(a1-6)]Man(b1-4)GlcNAc(b1-4)GlcNAc
Method in brief: as §1

[22] = biological target: Fuc(a1-2)[Gal(a1-3)]Gal(b1-3)GlcNAc(b1-2)Man(a1-3)[Fuc(a1-2)[Gal(a1-3)]Gal(b1-3)GlcNAc(b1-2)Man(a1-6)]Man(b1-4)GlcNAc(b1-4)[Fuc(a1-6)]GlcNAc
Method in brief: as §1

[23] = biological target: Fuc(a1-2)[Gal(a1-3)]Gal(b1-3)GlcNAc(b1-3)GalNAc
Method in brief: as §1

[24] = biological target: Fuc(a1-2)[Gal(a1-3)]Gal(b1-3)GlcNAc(b1-6)GalNAc
Method in brief: as §1

[25] = biological target: Fuc(a1-2)[Gal(a1-3)]Gal(b1-4)Glc
Method in brief: as §1

[26] = biological target: Fuc(a1-2)[Gal(a1-3)]Gal(b1-4)GlcNAc
Method in brief: as §1

[27] = biological target: Fuc(a1-2)[Gal(a1-3)]Gal(b1-4)GlcNAc(b1-2)Man
Method in brief: as §1

[28] = biological target: Fuc(a1-2)[Gal(a1-3)]Gal(b1-4)GlcNAc(b1-2)Man(a1-3)[Fuc(a1-2)[Gal(a1-3)]Gal(b1-4)GlcNAc(b1-2)Man(a1-6)]Man(b1-4)GlcNAc(b1-4)GlcNAc
Method in brief: as §1

B1: Epa3to2 (Candida glabrata) (protein)
chain: MGSSHHHHHHSSGLVPRGSHMKRELSSQNPFGYPIGCSPQDVAIIPGLTMELYSYPIVSGTPPNCYDASYVDPEYPRTGYLKRKMVGKSTGVTGNLNYKYSVEKACMVKYGNLPAGYNYNEPLTVSNFTMILYGYFKAQTTGLHTFFVNADDLLYINFGAGNAFDCCKREDSKTKLGEYVAYDIWHVDSSKNKVSLFLEKDLYYPIRMFFNNRDNNSSLDLSFSVNGATDQISDFSGYLYSVPDQPDTCPAHIGYDTTCR
With B1 the “glycan array binding signal (z-score)” value [1] was -0.318, the “glycan array binding signal (z-score)” value [2] was -0.913 and the “glycan array binding signal (z-score)” value [3] was 1.22. The “glycan array binding signal (z-score)” value [4] was -0.565, the “glycan array binding signal (z-score)” value [5] was -0.057 and the “glycan array binding signal (z-score)” value [6] was -0.709. For the same binder, the “glycan array binding signal (z-score)” value [7] was -0.245, the “glycan array binding signal (z-score)” value [8] was 2.47 and the “glycan array binding signal (z-score)” value [9] was 1.22. For the same binder, the “glycan array binding signal (z-score)” value [10] was -0.557, the “glycan array binding signal (z-score)” value [11] was -1.04 and the “glycan array binding signal (z-score)” value [12] was -1.02. The “glycan array binding signal (z-score)” value [13] was -0.324, the “glycan array binding signal (z-score)” value [14] was -0.104 and the “glycan array binding signal (z-score)” value [15] was 0.309. The “glycan array binding signal (z-score)” value [16] was 2.11, the “glycan array binding signal (z-score)” value (Fuc(a1-2)Gal6S(b1-4)Glc) was 0.725 and the “glycan array binding signal (z-score)” value [17] was 0.101. The “glycan array binding signal (z-score)” value (Fuc(a1-2)[Gal(a1-3)]Gal) was -0.097, the “glycan array binding signal (z-score)” value [18] was 1.16 and the “glycan array binding signal (z-score)” value [19] was 1.1. For the same binder, the “glycan array binding signal (z-score)” value [20] was -0.392, the “glycan array binding signal (z-score)” value [21] was -0.575 and the “glycan array binding signal (z-score)” value [22] was 0.353. For the same binder, the “glycan array binding signal (z-score)” value [23] was -0.854, the “glycan array binding signal (z-score)” value [24] was 1.05 and the “glycan array binding signal (z-score)” value [25] was 0.436. The “glycan array binding signal (z-score)” value [26] was -0.27, the “glycan array binding signal (z-score)” value [27] was -0.413 and the “glycan array binding signal (z-score)” value [28] was -0.332.
